Paper PMC9463443
The exact form of at least one protein or probe is not confirmed. The comparison behind a weaker result is the experiment's own reference, which may not be listed here.

Tested on: CCAN6E-deltaCT (CENP-L4E/N2E) K296E,R306E,K319E,K321E,CENP-N:K270E,CENP-L:K155E (Homo sapiens)
Test: EMSA
Settings: 300 mM NaCl; EMSA: 20 mM HEPES-Na pH 7.5, 300 mM NaCl, 0.5 mM TCEP, 10 min on ice, 1% agarose in 0.5x TAE; recombinant protein

“ATCGAGAATCCCGGTGCCGAGGCCGCTCAATTGGTCGTAGACAGCTCTAGCACCGCTTAAACGCACGTACGCGCTGTCCCCCGCGTTTTAACCGCCAAGGGGATTACTCCCTAGTCTCCAGGCACGTGTCACATATATACATCCGAT (double strand) [147 bp DNA (Widom 601)]”: binds more weakly.
